Experimental data taken from the supplement of paper PMC3334620.
Over roughly 33,000 sequences, “E-score (-0.5 to 0.5)” has its median near -0.016; the highest 2% begin near 0.3. Some of the results follow.

molecular target: T1, Yer184c (UniProt P39961); experiment: PBM E-score (8-mer binding enrichment) (E-score (-0.5 to 0.5)); higher = stronger / more preferred TF binding; settings: protein concentration: 100 nM; construct: GST-full length
T1 sequence: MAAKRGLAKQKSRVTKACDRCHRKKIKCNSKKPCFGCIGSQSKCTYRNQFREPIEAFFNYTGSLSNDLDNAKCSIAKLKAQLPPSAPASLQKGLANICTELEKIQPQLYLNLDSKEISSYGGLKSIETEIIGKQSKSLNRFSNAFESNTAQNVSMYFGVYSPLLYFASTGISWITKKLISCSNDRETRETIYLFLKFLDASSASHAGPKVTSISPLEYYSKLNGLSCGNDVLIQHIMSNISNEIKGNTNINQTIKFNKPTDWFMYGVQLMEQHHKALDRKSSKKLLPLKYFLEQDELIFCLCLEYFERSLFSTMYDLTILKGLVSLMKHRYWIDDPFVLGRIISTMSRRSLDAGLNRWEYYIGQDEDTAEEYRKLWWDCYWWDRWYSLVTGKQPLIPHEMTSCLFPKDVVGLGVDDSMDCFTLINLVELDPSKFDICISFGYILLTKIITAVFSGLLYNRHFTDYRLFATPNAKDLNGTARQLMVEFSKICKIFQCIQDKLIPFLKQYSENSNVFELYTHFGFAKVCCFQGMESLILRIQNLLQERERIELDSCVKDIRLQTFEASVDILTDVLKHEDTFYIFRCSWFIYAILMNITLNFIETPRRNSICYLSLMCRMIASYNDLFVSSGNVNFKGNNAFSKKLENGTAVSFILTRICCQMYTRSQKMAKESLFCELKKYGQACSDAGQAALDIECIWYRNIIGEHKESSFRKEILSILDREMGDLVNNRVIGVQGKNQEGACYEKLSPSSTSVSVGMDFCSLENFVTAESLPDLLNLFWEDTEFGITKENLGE
Procedure, shortened: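 The E-score, a modified Wilcoxon-Mann-Whitney statistic, was computed by the Universal PBM Analysis Suite for every ungapped eight-base word pooled with its reverse complement. Scans behind it were normalised with masliner after bound GST-tagged yeast transcription factors were detected with fluorescent anti-GST. The proteins, at about 100-200 nM, had been applied to universal all-10-mer Agilent arrays made double-stranded by primer extension.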

Row | Sequence | PBM E-score
1 | ACGTCTTA | -0.153
2 | CACGCATA | -0.217
3 | AGAATCTG | -0.0234
4 | GCTAAAAA | 0.0777
5 | CAGAGTAC | 0.0302
6 | TAACTAAA | 0.0945
7 | GACGGGCC | -0.0717
8 | CGCTGCCG | 0.159
9 | CCGCGGCC | 0.374
10 | AGCGTTTA | -0.115
11 | TGCCTAAA | -0.1
12 | CAACGCTG | -0.0457
13 | ACTAGGTG | -0.301
14 | GAAGTGAA | -0.0113
15 | GTCCGCTA | 0.103
16 | AGCGCCCA | -0.343
17 | GCGCCGCA | 0.166
18 | ATTAGGTA | 0.0954
19 | GCGCATAA | -0.123
20 | GCATAGGA | -0.0473
21 | ATCTTACC | 0.107
22 | ATCTCCCA | -0.053

Row | Sequence | PBM E-score
23 | CAGGCATA | -0.221
24 | GATAGCAC | -0.0951
25 | GAAGCCGC | 0.177
26 | CGGAACAG | 0.338
27 | TCCCACCA | -0.222
28 | GACTGCTC | -0.0916
29 | AAGTACGA | 0.0484
30 | GGGACGGA | -0.275
31 | AGTGCTCC | -0.133
32 | AACCGATT | 0.259
33 | CGAACCAC | -0.00215
34 | ATGTATCA | 0.0654
35 | GAGTAATC | 0.112
36 | AAAATGTT | -0.123
37 | GTAAATCA | 0.144
38 | GCTGGACC | -0.0272
39 | AGAATCAG | 0.112
40 | CTGGGCTC | -0.0716
41 | CAATGGAC | 0.0146
42 | CTCGGGCC | 0.101
43 | ACTTAACT | 0.0856
44 | CGAGTCCA | -0.217

Exported with tabs: entries from further up
Row	Sequence	PBM E-score
2	CACGCATA	-0.217
5	CAGAGTAC	0.0302

More results

Row | Sequence | PBM E-score
45 | CCCAGACC | -0.252
46 | GAGCGAAA | 0.203
47 | ATTTAGCG | 0.0428
48 | ACCACAAC | 0.119
49 | ACTGCATA | -0.0363
50 | GACTGCTA | -0.295
51 | CCGCCCAG | -0.0712
52 | CACACTAA | 0.0117
53 | GACCGTGC | -0.0942
54 | GTGAGCGA | -0.156
55 | AGGCTGAA | 0.0246
56 | AAGGGTGA | -0.165
57 | CCGTCTCC | 0.118
58 | CAGGAGCG | -0.0783
59 | ACTCGTAT | -0.0263
60 | AGAGACCC | -0.203
61 | CACTTAGA | 0.0454
62 | GTAACAGA | 0.197
63 | CGTTACAA | 0.0624
64 | ATAACGAG | -0.0105
65 | GGACTCAA | -0.0284
66 | GGAACGCA | -0.0192

Row | Sequence | PBM E-score
67 | CAAGCCCC | -0.228
68 | GAGCGGCA | 0.0139
69 | CAGTGACA | -0.178
70 | ATATAAAT | 0.305
71 | ACTAGCTG | -0.192
72 | AACCCAAA | 0.144
73 | CCCGCGAC | 0.0681
74 | AGTTAGCG | 0.0216
75 | AAAGTGTA | -0.178
76 | TTGAACAA | 0.0668
77 | TCGCTTAA | 0.00488
78 | AGACCGTA | -0.107
79 | CCCGGCAG | 0.131
80 | CAAGGATC | 0.0621
81 | ACTAGATC | -0.0999
82 | ATGCGTGG | -0.302
83 | ATCCGTGA | 0.194
84 | ATCTAAGG | -0.165
85 | ACCTAACG | -0.165
86 | GACCTCGA | 0.0759

In another format: results already given.
Row,Sequence,PBM E-score
11,TGCCTAAA,-0.1
12,CAACGCTG,-0.0457
13,ACTAGGTG,-0.301
14,GAAGTGAA,-0.0113
15,GTCCGCTA,0.103
16,AGCGCCCA,-0.343
17,GCGCCGCA,0.166
18,ATTAGGTA,0.0954
19,GCGCATAA,-0.123
20,GCATAGGA,-0.0473
21,ATCTTACC,0.107
22,ATCTCCCA,-0.053
23,CAGGCATA,-0.221
24,GATAGCAC,-0.0951
25,GAAGCCGC,0.177
26,CGGAACAG,0.338
27,TCCCACCA,-0.222
